From publication PMC11651612 come the findings set out here.

T1: Cdc3-mCherry (C. neoformans) (UniProt J9VUF2)
T1 sequence: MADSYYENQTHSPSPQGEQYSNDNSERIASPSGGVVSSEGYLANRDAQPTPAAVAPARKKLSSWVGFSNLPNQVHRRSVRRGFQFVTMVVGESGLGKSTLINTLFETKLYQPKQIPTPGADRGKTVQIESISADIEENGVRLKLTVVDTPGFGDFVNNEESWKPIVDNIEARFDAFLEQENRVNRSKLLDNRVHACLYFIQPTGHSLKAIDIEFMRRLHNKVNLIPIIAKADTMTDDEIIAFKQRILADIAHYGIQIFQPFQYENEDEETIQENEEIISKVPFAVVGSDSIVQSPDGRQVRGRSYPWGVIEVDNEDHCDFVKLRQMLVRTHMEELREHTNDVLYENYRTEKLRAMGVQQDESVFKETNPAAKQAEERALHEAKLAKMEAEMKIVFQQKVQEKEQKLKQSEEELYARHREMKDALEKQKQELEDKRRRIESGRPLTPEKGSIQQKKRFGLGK

T2: Cdc10-mCherry (C. neoformans) (UniProt J9VMT9)
T2 sequence: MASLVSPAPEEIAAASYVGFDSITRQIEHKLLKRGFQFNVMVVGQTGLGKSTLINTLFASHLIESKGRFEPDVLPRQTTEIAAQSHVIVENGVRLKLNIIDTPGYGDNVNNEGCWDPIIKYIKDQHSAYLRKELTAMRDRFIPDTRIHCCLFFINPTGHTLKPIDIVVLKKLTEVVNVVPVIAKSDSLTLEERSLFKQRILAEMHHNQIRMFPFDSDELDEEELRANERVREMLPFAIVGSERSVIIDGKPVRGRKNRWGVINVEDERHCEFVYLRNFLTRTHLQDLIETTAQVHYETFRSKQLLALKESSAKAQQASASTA

B1: Allergen (protein, UniProt J9VN13 1-234)
chain: MSGVTQGVKEFFSKSSKPETTEVCTDTAPEVVQEHIRPQERVETAEAVDRERHVHHLQHRLQPVEDKQTLDTKHINTTEPVIAREHKEEMRPEHQEALAKQRNLAQDTRSTGAVEKSGEHVGTALNEHQHHHIHETVQPVVQRETVDPTVVHKTKAVHERVEDAPIVHEVTTLPTISADKYAKNKSSLEGEGEHCSTFEGAPQVAGQSSNVSAENAAPDATSTGGHHSSKTQAL
B2: PH domain-containing protein (CNAG_06928) (protein, UniProt J9VR41 1-1142)
chain: MSVDLSHPDIAAACASISNPADPAAWLLLQYASPPSTTQLPQLLLLDSGPLPVLPAWQHHLQTTHQSILFGYAEIAEKGLVLVYLTPDVGGVKRARAIVHSRAFASLFPDYSAIITISHPSELTEQLIADELALNLPSTTSLPASVPAASTQYVVPGADGLVPDPLSPRGAGMGRDLPSLPFPTSNQQSLQTTQLQTSQLPPLPPLPPSPIPPSPVSKDETGISRVSNVNGMNEAKEVEKGMNLEVGGEHEREGRQENDHGSGFENGNGNRNGNMSTNITTSTRKPVPALSLSPSPPRPPRHSQPRTPPKPQPILLPNSAHLPVAPLDLAPAPATPAQATGGTEERSRKSSTPLSLTSRLKNTFHRSSLKDKDSPTVVPSSPTPTPSSPSFPSSANNAKPDDLGSPISNPNATSTPHSPSTPSAGKFKASSLSKVFGKRKSAGTSTSTPSGSGTWAGPGEGSKLTEEREGQRINEFGRPPQTGEGLQVSSQSTGIDPPVAPASVPIASPSLAAAPTPSPKSPLPHPSEPSVQSGPTDELNSPPAGLEPGLGLATPLPPRGSSLQPHHSPSPLSSPGAPGAQERQTIGTGNAVFPLAGVPLLGPEAPLPLLPPSSPSSHSHRGLDSNLERVGSPYYTPSLMHPSPSFQPQEGKTQNQPYTYPSRLHPHTQTPSHSHPSAAATTLQSPPSRSTSLSSSTPPTTTLATTTMGPAYIPAGTQDAYANAKEGGEEIEAEEGKQRDREREREKERESVLLAYDRPEIESKLDPRQEEGTTEIMEGMEKGLFPHQGEQVSDASAPNPVSLGAPAPAPVDEYDSLSHPSALQSPSPLHPTTPIHATAPHLVEEQTEEAEKETKETPVQTKEAKAEGEDDEQNQKEGEEQRLEREREREMLEAQQLAQWQAAETARWEAEESARLEREQAVRLAAEEQARRDAEEAERFRLEEEERVRAEEEARRQKEAEEEARRRAEEERRRQREREEEENRRVEEEERRKREEERRKEEEERRKREEEEERERKRKEEAEERKRTVRDGLERGKREGGLMLKGSVTVQTCKSLTWRRRYFQLFSHEMQLFKNENDTKPIQIIPLSKSTDISETYEESQVKDSFKISSGDEGEGGEVFFLFTDSAEDKEFVLDGVRLCIG
B3: Uncharacterized protein (CNAG_03045) (protein, UniProt J9VPM1 1-340)
chain: MPSSLVLFTTSQTPLAVRYPHPRKPILNVPPLLHRSLHNALDRDQPSAAFVGNAGGVEDVAQGTLYIPNLEELVKPSPLAVPNGHASPELVHDNIELTVKVHLIVSPTSTPTASARADWVNEALQVFRKAKRLPLPDNLLIGFNGIDYRGIKTATGAEGSVAPDTEVVPAELEQEVLKVWERVFAEQDKLVKEGGKLGSLYAPQGLLRKLTEREGGRRVKVNALDTPDCHHLPKDYTGYARKNGVELWAGGGGEGSDPLPSAHLQNVLQEFLPAIRKIVPEQQAKEFSKLDSLIPLRQDGLKFEDVETGVQVRWVLSYTVLSTTRNVVEDKGYIVAADLV
B4: PLAT domain-containing protein (protein, UniProt J9VQK4 1-395)
chain: MEFHTSSQEINKPKQLYPCLAVIDINSSDTKSRRLSAGSFGSDKDEGNVLTRVISGGGRRKSSFGETGGGGGGRRLSFGGKKDDDKVEGKWYWRVQAGVNETHIVLLPLTQPPNPLLTTRPAPLSAAIPSRATHEASTHPNESAIAENEGGNEPGFASRMKNMFRRASSSVKERPSAPSASETTSGGPSIGGERVTDQTERGEMLPSVKGNVEGATNLNSNAELGWPGMINGEKLGAILIPLSSIGKKVGLGGGKKADASWVTVQVTSNTQSMEPIGTSRFDPGPKSGSIKFEFDKDWLGARGEAEVLHHYITTAAAAAPAPTERTAPNPSSFQLGGQHATSGPTQQAQTSDPLFSGSPFANTGRAGDPADRPLVDEAIAPDVSATSSRKVAGVY
B5: CUE domain-containing protein (protein, UniProt J9VZQ5 1-943)
chain: MENTIKAPSPRKHSALLTTADDFDTPSQAPTPTPPATLTAHPHLAHYIHSLLNNVHFPPPRSALSQHPLSVSSSGGSDGSDSDDDHHGNVSNVSQSGSEAASTSGASGVTKSSQETGVTRSDYGTARKATTAEKEELVKKIVELLDNDQEEEIKGTLKPYMGELGKDDLLMDQVCLDCMHKRRDDIEGLPYAPHLTPTRARASPGIGSRPFTPTRVPSFRSRTPLSRTHSPVPPIPSHSSATVPPKPASSSGYSPAPSPLASPRMLNAKASTFNPSARVVSGMNASAPGFIPSDAWRDAPSADQPPRAGSPFGAIGAPSMTRTGSNLAIASPLFSDQQSPFHSPVGTPQRTPVKMPDLFSSPAQRAAASKSIVPEDDDDDEFSPFGKGLPKLHHHDTSLKADSKPFNPYFFGAPLGPALNANAGEYTPNIAMSDTSTSYSSSNLGTSDVLDESTTETGSGMTPLDVLCSVFTSVPRPELEDALHRSGYDFEAAMSMLVAAYTNPRSGASTPQRVSSPRPHIGMGRGGRDGYFPTASSRTLRSDISAMGGTRSPGGANGGKMCRYFLAGECRRSDCRFSHDLDRAMCRFWLRGHCAKGPNCEFLHNFPNNLDVSALQTAMSRVEFSQDEYARPDSPGNWHQPPEEFPDLATARSARAPRFDPSRNRFANAIKRAAPAPPRDFPSTQAQAAHSQDYLSDPSISPVPALPRPSMRIKLRPPTLLPTLKTGTAANEQYLASRSTSIRLGHARNACLARAADAFRRGDGAAAKRFSREGKALNQRMLNEAAEAAQGLVKERQAEAMEAVKERPTGWSDDPADRSQRGKACAGGLGVILGVASISRLPPSANASSLSSEERTEALLDLHTLHGNEAADILGQFLAELERERFRGLAYVVVGEEKHVGTQDEKRGAGKIRLGASVKSALAGWGYAWNESAGIICVDPCRT
B6: Zinc finger protein (CNAG_00292) (protein, UniProt J9VGH9 1-524)
chain: MSSDKTNLFPTLSEVADRTGKGESAGLEQEGDDRQMQEIESLCMRCHENGTTRLLLTSIPYFKEIVVSSFRCDHCGHRDTEIQSAGEIQPKGVTYTVHLLTRADLDRQIVKSNWATITIPDIQLTIPPGRGQINTVEGIIRDTVRDLNISQPVRRVMDPETGKKIDELLEKLRASIDMEEEDEDDGGVGIDDDEKPVHHEPSNASSKEEKPFVPFSVIVDDPSGNSYFQFKGSQSDPQWNMRAYNRTFDQNVTLGLVARPEDISEEQPEGVPIVAADHKLSSVEEFESKRNKNAINRDDGTVVPDEIYSFPATCSSCGHQLETLMQQVNIPYFQNIIIMSSNCYACGYRDNEVKSGGSIAPKGKRITLKVEDEEDLSRDMLKSDTAGLSIPEIDLVLQPGTLGGRFTTLEGLLNEIYTELSTKVFRAGDSTTAGIGQADSNVGEDEAKFGDFLKGLKECMSAQRQFTLILDDPVSNSYLQNLYAPDPDPNMQIEVYDRTFEQNEELGLNDMVVEGYNKEAEGTA
B7: Mannose-6-phosphate isomerase, variant (protein, UniProt T2BNL9 1-142)
chain: MPPPAHKMAHFPRITSSLPSEHSEFRTVMWTGESSQLVLMTIPVGGEIGEEIHHVDQHLVFTSGTAKAIVAGEEKEIKAGDLVIVPQGTKHNFVNTGPTPLCLFTVYAPAEHAETTVNRTKEEGDKLEEDGKDEPPEWAVRK
B8: Rho family GTPase–Rho104 (protein, UniProt J9VN71 1-224)
chain: MSSSPNNRAIRRKLVIVGDGAAGKTSLLNVFAVGHFSESYEPTVFDNYVTEIELDGKPVQLALWDTAGQEEYERLRPLSYSKAHVILIAFAVDTPDSLENVTQKWIEEVRSICGKAIPVILVACKTDLRDKAVANGTYSPERFTDHATGQRIADSIGAKGYFETSALQNRNVDAVFEAATRAAVLVRDAGHGGVGATNGSFEGGGRKDWGREKEEKKFGCCVIA
B9: Uncharacterized protein (CNAG_03815) (protein, UniProt J9VIS6 1-380)
chain: MPSVLSPNNPVSRSYAPLADETNLSVTTSAPVKTIPYNGSVMYNGSNGSVMYGQPALSPMVAASSSLGLDDMQKAGMSMRNDSEETLSPSASRKGKERAKTPTFDSGDLGEVRRGSYKGKERVRDIEEGRIYSEEQLASENSRYPPTNEAEEEERRIQEHLTRLAARDMARRRAARESKQLPSPSTASASPRSSYSVSSAARRPFSFFSSSSKRGSLLGLDSSWIGKKSADVGELPMSRPRSHDEQYMNPYEAQPSFSPAPKASDSPITTSIRSPFADPSPPLPAAIDRSAYRRASVVSVASSGSPHTAYRSPLVSPSSPTDETGFAYGGPTWRGGQAVQQRENVARKGPDRWWHALCAWGDDLDGGHDVPEAGRTNPFE

Results are given in words; binding and its absence hold for the method and conditions named. Binding seen in cells or lysates may run through a third protein. Here binding means that the protein was enriched with, or labelled near, the bait; the list need not be complete.

For the first experiment, the target named is T1, Cdc3-mCherry (C. neoformans). Briefly: affinity purification with mass spectrometry.
Consider B1, for which the binding entry is “binds”. On the same count and under the same terms, next, B2: “binds”; B3: “binds”. Turning to B4, the binding entry is on record as “binds”. Take B5: the binding entry was “binds”.

In another experiment the target is T2, Cdc10-mCherry (C. neoformans). Briefly: affinity purification with mass spectrometry.
With B6, the binding entry is “binds”. On the same count and under the same terms, next, B7: “binds”; B3: “binds”; B8: “binds”. On the same count and under the same terms, next, B4: “binds”; B9: “binds”; B5: “binds”.
